The supplement of paper PMC12823440, “Inhibitors supercharge kinase turnover through native proteolytic circuits” (Nature, 2025)
Where a name gives a salt, the structure may show the parent alone. The list shows a part of the results. Hit calls seldom repeat between salt and free forms of one compound.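 Kinases were expressed as nanoluciferase fusions in K562 cells and luminescence was read every 4 h between 2 and 18 h as percent of control, DMSO set to 100% and a positive control to 0%. A time point counts as decreased when the signal drops significantly (2 sigma). The hit call is the authors' own, does not follow from the count of time points alone, and its rule is not shown.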

Amino acid sequences for entries named in this document (tags omitted). A change or cut given only in a name is not applied to a line headed by its entry.
UniProt P07947, whole entry, looked up: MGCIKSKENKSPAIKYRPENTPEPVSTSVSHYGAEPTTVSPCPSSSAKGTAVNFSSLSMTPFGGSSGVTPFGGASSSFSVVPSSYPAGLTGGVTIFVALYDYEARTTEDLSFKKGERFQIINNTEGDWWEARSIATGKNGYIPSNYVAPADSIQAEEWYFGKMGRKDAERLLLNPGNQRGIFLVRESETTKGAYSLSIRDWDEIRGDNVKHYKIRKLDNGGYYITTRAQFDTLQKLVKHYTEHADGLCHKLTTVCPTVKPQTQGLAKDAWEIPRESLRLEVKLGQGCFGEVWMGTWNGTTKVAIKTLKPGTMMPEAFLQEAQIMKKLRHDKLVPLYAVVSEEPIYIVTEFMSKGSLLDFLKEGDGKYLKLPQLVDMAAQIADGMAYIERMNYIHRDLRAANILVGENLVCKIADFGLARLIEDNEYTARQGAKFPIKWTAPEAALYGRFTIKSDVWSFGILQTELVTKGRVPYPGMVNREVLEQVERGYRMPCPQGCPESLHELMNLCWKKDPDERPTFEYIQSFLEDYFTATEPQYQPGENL
UniProt P43403: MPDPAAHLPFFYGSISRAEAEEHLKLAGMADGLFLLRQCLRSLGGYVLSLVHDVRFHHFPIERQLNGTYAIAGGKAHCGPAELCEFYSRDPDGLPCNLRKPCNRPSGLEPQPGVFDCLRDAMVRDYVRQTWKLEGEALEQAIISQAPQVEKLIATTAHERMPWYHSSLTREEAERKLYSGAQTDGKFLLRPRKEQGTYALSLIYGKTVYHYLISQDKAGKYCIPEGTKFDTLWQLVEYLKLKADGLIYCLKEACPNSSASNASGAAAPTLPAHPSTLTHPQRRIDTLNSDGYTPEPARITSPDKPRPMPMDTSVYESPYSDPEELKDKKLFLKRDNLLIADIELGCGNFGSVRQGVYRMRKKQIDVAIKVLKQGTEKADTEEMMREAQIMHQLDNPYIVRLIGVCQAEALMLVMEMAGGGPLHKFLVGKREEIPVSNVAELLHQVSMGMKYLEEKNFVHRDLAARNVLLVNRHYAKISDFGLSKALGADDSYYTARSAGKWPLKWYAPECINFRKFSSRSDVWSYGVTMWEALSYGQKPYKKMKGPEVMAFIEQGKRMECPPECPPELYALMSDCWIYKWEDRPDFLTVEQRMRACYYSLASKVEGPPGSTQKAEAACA
UniProt P11802: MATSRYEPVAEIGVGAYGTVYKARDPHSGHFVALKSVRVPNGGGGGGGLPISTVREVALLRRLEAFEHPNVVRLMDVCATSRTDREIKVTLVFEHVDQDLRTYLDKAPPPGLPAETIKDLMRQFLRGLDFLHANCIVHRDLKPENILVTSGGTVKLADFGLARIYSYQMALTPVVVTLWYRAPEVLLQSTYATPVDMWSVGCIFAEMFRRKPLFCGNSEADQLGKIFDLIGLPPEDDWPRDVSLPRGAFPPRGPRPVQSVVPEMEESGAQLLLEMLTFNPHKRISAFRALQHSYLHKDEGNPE
UniProt P50613: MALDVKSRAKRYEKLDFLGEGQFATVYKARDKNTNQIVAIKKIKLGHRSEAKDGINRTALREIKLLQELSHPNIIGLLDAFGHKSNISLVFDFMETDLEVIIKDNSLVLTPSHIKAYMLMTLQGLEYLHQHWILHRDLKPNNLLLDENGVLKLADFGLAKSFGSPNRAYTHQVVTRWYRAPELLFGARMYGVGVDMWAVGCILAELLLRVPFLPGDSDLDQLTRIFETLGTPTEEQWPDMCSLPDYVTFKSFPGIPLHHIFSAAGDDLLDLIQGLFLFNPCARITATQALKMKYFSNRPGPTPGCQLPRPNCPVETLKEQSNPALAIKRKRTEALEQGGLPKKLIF
UniProt P50750, whole entry: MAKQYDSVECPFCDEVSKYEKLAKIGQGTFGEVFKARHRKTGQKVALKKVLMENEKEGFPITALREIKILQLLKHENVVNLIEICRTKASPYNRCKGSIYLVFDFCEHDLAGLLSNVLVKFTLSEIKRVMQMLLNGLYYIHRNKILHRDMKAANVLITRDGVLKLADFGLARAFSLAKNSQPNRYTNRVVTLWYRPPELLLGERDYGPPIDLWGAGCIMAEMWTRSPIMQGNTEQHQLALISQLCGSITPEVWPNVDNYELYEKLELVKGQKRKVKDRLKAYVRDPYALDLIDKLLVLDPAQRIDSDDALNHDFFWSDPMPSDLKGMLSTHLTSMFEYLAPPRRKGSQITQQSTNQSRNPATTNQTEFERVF

How the values were obtained:
Details in all cases: K562; 2-18 h
[1] = target: YES1 (UniProt P07947); assay: number of time points (of 5) at which kinase-Nluc abundance scored as decreased, DMSO-normalised (count); higher = more persistent destabilization
[2] = target: ZAK (UniProt Q9NYL2); assay: as above
[3] = target: ZAP70 (UniProt P43403); assay: as above
[4] = target: CDK4 (UniProt P11802); assay: number of time points (of 4; 2 h point missing) at which kinase-Nluc abundance scored as decreased, DMSO-normalised (count); higher = more persistent destabilization
[5] = target: CDK7 (UniProt P50613); assay: as above
[6] = target: CDK9 (UniProt P50750); assay: as above

| SMILES | number of time points [1] | number of time points [2] | number of time points [3] | number of time points [4] | number of time points [5] | number of time points [6] |
| --- | --- | --- | --- | --- | --- | --- |
| COc1cc2nccc(Oc3ccc(NC(=O)c4cn(C(C)C)c(=O)n(-c5ccc(F)cc5)c4=O)cc3F)c2cc1OC (0.5 µM) | 0 | 0 | 0 | 0 | 3 | 0 |
| N#Cc1ccc2ncnc(NCCc3ccccc3)c2c1 [Senexin A] (10 µM) | 0 | 0 | 0 | 0 | 0 | 0 |
| COc1cc2c(cc1Nc1ncc(C(N)=O)c(Nc3c(F)cccc3C(F)(F)F)n1)CN(C)CC2 (2.5 µM) | 0 | 0 | 0 | 0 | 0 | 0 |
| O=C(O)c1cc(N(Cc2ccccc2O)Cc2cc(O)ccc2O)ccc1O [Lavendustin A] (10 µM) | 0 | 1 | 0 | 0 | 0 | 0 |
| Cc1cc(O)c2c(c1)C(=O)c1cccc(O)c1C2=O [Chrysophanol] (2 µM) | 0 | 0 | 0 | 0 | 0 | 0 |
| Cc1cc([C@@H](C)Nc2ccccc2C(=O)O)c2nc(N3CCOCC3)cc(=O)n2c1 (10 µM) | 0 | 0 | 0 | 0 | 0 | 0 |
| CC(C)Oc1ccc(F)c(-c2cnc(N)c(C(=O)Nc3cnccc3N3CCC[C@@H](C(=O)O)C3)n2)c1 (2 µM) | 1 | 0 | 0 | 0 | 0 | 0 |
| Nc1nccc(-c2c(-c3ccc(F)cc3)ncn2C2CCCCC2)n1 (10 µM) | 0 | 0 | 0 | 0 | 0 | 0 |
| O=C1CC[C@H](NC(=O)Cc2ccccc2)C(=O)N1 [Antineoplaston A10] (10 µM) | 0 | 0 | 0 | 0 | 0 | 0 |
| N[C@@H]1CCCN(c2c(/C=C3\SC(=O)NC3=O)cccc2-c2ccccc2)C1 (10 µM) | 0 | 0 | 0 | 0 | 0 | 0 |
| O=C(Nc1cccnc1)c1cc(-c2ccnc(F)c2)ccc1OCc1ccccc1 (10 µM) | 0 | 0 | 0 | 0 | 0 | 0 |
| COc1cc(-c2oc3cc(O)cc(O)c3c(=O)c2O)ccc1O [Isorhamnetin] (10 µM) | 0 | 0 | 0 | 0 | 0 | 0 |
| COC(=O)[C@H](CCSC)NC(=O)c1ccc(NC[C@@H](N)CS)cc1-c1ccccc1 [FTI-277 (hydrochloride)] (10 µM) | 0 | 0 | 0 | 0 | 0 | 0 |
| O=C(c1cccc(Cl)c1F)N1CCN(Cc2cccc(Nc3nccs3)n2)CC1 (2.5 µM) | 0 | 0 | 0 | 0 | 0 | 0 |
| CC(O)(C#Cc1ccc2c(c1)N(c1nc(N)ncc1Cl)CC2)c1nccs1 (stereo unspecified) (2.5 µM) | 0 | 0 | 0 | 0 | 0 | 0 |
| CC(C)[C@H](CO)Nc1nc(Nc2cccc(Cl)c2)c2ncn(C(C)C)c2n1 [Purvalanol A] (10 µM) | 0 | 0 | 0 | 0 | 0 | 0 |
| CCCn1/c(=N/C(=O)c2cccc(C(N)=O)c2)[nH]c2ccccc21 [Takinib] (10 µM) | 0 | 0 | 0 | 0 | 0 | 0 |
| COc1cc(-c2cc(-c3ccc(N4CCNCC4)cc3)cnc2C)cc(OC)c1OC (10 µM) | 0 | 0 | 0 | 0 | 0 | 0 |
| CC1CN(CC2CCN(Cc3ccccc3)CC2)C(=O)N(c2cccc(C(=N)N)c2)C1 (stereo unspecified) (10 µM) | 0 | 0 | 0 | 0 | 0 | 0 |
| COc1ccc(Br)cc1NC(=O)Nc1cccc2c1ccn2Cc1ccnc(N)c1 (2.5 µM) | 0 | 0 | 0 | 0 | 0 | 0 |
| CC(C)=CC[C@@H](O)C1=CC(=O)c2c(O)ccc(O)c2C1=O [Shikonin] (10 µM) | 0 | 0 | 0 | 0 | 0 | 0 |
| O=C1Nc2ccc(CN3C(=O)CSC3=O)cc2/C1=C/c1cc(CN2CCOCC2)c[nH]1 (10 µM) | 0 | 0 | 0 | 0 | 0 | 0 |
| COCCOCCc1c(C)c2cc(OC)c(O)c(C=O)c2oc1=O (10 µM) | 0 | 0 | 0 | 0 | 0 | 0 |

A second format for some results above:
SMILES	number of time points [1]	number of time points [2]	number of time points [3]	number of time points [4]	number of time points [5]	number of time points [6]
CC1CN(CC2CCN(Cc3ccccc3)CC2)C(=O)N(c2cccc(C(=N)N)c2)C1 (stereo unspecified) (10 µM)	0	0	0	0	0	0
COc1ccc(Br)cc1NC(=O)Nc1cccc2c1ccn2Cc1ccnc(N)c1 (2.5 µM)	0	0	0	0	0	0
CC(C)=CC[C@@H](O)C1=CC(=O)c2c(O)ccc(O)c2C1=O [Shikonin] (10 µM)	0	0	0	0	0	0

Remaining list, next part

| SMILES | number of time points [1] | number of time points [2] | number of time points [3] | number of time points [4] | number of time points [5] | number of time points [6] |
| --- | --- | --- | --- | --- | --- | --- |
| NC(=O)c1ccc(N(C(N)=O)c2c(F)cccc2F)nc1-c1ccc(F)cc1F (10 µM) | 0 | 0 | 0 | 0 | 0 | 0 |
| Cc1cc(Nc2cc(N)ncn2)c(=O)n2c1C(=O)NC21CCCCC1 [Tomivosertib] (10 µM) | 0 | 0 | 0 | 0 | 0 | 0 |
| CNC(=O)c1ccc2c(C(=Nc3cccc(CN(C)C)c3)c3ccccc3)c(O)[nH]c2c1 [MEK inhibitor] (10 µM) | 0 | 0 | 0 | 0 | 0 | 0 |
| Cn1c2cc([S+](C)[O-])sc2c2cnn(Cc3cccc(N)c3)c(=O)c21 (stereo unspecified) (2.5 µM) | 0 | 0 | 0 | 0 | 0 | 0 |
| CC1(N)CCN(c2cccnc2NC(=O)c2nc(-c3ncccc3C(F)(F)F)cnc2N)CC1 [Darovasertib] (10 µM) | 0 | 0 | 0 | 0 | 0 | 0 |
| c1nn(C2CCOCC2)cc1Nc1ncc2nnn(-c3ccc4cn[nH]c4c3)c2n1 (10 µM) | 0 | 0 | 0 | 0 | 0 | 0 |
| CN(C)c1ccc(-c2nc3ncc(Cl)c(N4CCN(CC(=O)Nc5nccs5)CC4)c3[nH]2)cc1 (2 µM) | 0 | 0 | 0 | 0 | 0 | 0 |
| CCn1c(-c2nonc2N)nc2c(C#CC(C)(C)O)ncc(OC[C@H]3CCCNC3)c21 (10 µM) | 0 | 0 | 0 | 0 | 0 | 0 |
| C=CC(=O)Nc1ccc(C(=O)Nc2[nH]nc3c2CN(C(=O)N[C@H](CN(C)C)c2ccccc2)C3(C)C)cc1 (10 µM) | 1 | 0 | 0 | 0 | 3 | 1 |
| Nc1ncc(C(=O)NC2CN(C(=O)C3CC3)C2)c2ccc(-c3cccc(F)c3)nc12 (2 µM) | 0 | 0 | 0 | 0 | 0 | 0 |
| c1nc2c(NC3CCCCC3)nc(Nc3ccc(N4CCOCC4)cc3)nc2[nH]1 [Reversine] (10 µM) | 0 | 0 | 0 | 0 | 2 | 0 |
| O=c1[nH]ccc2nc(-c3ccc(CN4CCC(c5nc(-c6ccccn6)n[nH]5)CC4)cc3)c(-c3ccccc3)cc12 (10 µM) | 0 | 0 | 0 | 0 | 0 | 0 |
| NC[C@@](O)(c1ccc(Cl)cc1)c1ccc(-c2cn[nH]c2)cc1 (10 µM) | 0 | 0 | 0 | 0 | 0 | 1 |
| Cn1cc(-c2cc(Oc3cc(F)c(NC(=O)C4(C(=O)Nc5ccccc5)CC4)cc3F)ccn2)cn1 (2.5 µM) | 0 | 0 | 0 | 0 | 0 | 0 |
| C[C@H]1O[C@@H](O[C@H]2CC[C@@]3(C)[C@@H](CC[C@]4(C)[C@@H]3C=C[C@]35OC[C@@]6(CCC(C)(C)C[C@H]63)[C@H](O)C[C@]54C)[C@]2(C)CO)[C@H](O)[C@@H](O[C@@H]2O[C@H](CO)[C@@H](O)[C@H](O)[C@H]2O)[C@H]1O [Saikosaponin D] (2.5 µM) | 0 | 0 | 0 | 0 | 0 | 0 |
| NC(=O)c1cnc(-c2ccc(C3(N)CCC3)cc2)c(-c2ccccc2)c1 (10 µM) | 0 | 0 | 0 | 0 | 0 | 0 |
| Oc1c(F)cc(-c2cnccc2-c2ccc(N3CCOCC3)cc2)cc1F (10 µM) | 0 | 0 | 0 | 0 | 0 | 0 |
| CO[C@H]1C[C@@H]2CC[C@@H](C)[C@@](O)(O2)C(=O)C(=O)N2CCCC[C@H]2C(=O)O[C@H]([C@H](C)C[C@@H]2CC[C@@H](OCCO)[C@H](OC)C2)CC(=O)[C@H](C)/C=C(\C)[C@@H](O)[C@@H](OC)C(=O)[C@H](C)C[C@H](C)/C=C/C=C/C=C/1C [Everolimus] (10 µM) | 0 | 0 | 0 | 0 | 0 | 0 |
| CC(C)CCN1c2nc(Nc3cc(F)c(O)c(F)c3)ncc2N(C)C(=O)C1C (stereo unspecified) (2.5 µM) | 0 | 0 | 0 | 0 | 0 | 0 |
| NS(=O)(=O)c1ccc(Nc2nc(-c3cccc(-c4ccccc4)c3)c3[nH]cnc3n2)cc1 (10 µM) | 0 | 0 | 0 | 0 | 0 | 0 |
| CO[C@H]1CC[C@H](N2C(=O)CNc3ncc(-c4ccc(C(C)(C)O)nc4)nc32)CC1 (2.5 µM) | 0 | 0 | 0 | 0 | 0 | 0 |
| O=c1c2c([nH]n1-c1nc3ccccc3s1)CCCC2 (10 µM) | 0 | 0 | 0 | 0 | 0 | 0 |
| Cc1ccc(-n2nc(C(C)(C)C)cc2NC(=O)Nc2ccc(OCCN3CCOCC3)cc2)cc1 (10 µM) | 0 | 0 | 0 | 0 | 0 | 0 |
